The labels stand for the following.
B1: TP-3A3 Fab (Fab, V domains shown)
VH: QVQLVESGGGLVQPGGSLRLSCAASGFTFNNNAISWVRQAPGKGLEWVSAINSSSSSTSYADSVKGRFTISRDNSKNTLYLQMNSLRAEDTAVYYCARGHHRGHSWASFIDYWGQGTLVTVSS
VL: DIELTQPPSVSVAPGQTARISCSGDNIGSKYVHWYQQKPGQAPVVVIYEDSDRPSGIPERFSGSNSGNTATLTISGTQAEDEADYYCQSWDKSEGYVFGGGTKLTVLG
B2: TP-3D3 Fab (Fab, V domains shown)
VH: QVQLVESGGGLVQPGGSLRLSCAASGFTFSSYASWVRQAPGKGLEWVSGISGDGSNTHYADSVKGRFTISRDNSKNTLYLQMNSLRAEDTAVYYCARYDNFYFDVWGQGTLVTVSS
VL: DIELTQPPSVSVAPGQTARISCSGDSLGSKFAHWYQQKPGQAPVLVIYDDSNRPSGIPERFSGSNSGNTATLTISGTQAEDEADYYCSTYTSRSHSYVFGGGTKLTVLG
B3: TP-3E1 Fab (Fab, V domains shown)
VH: QVQLVESGGGLVQPGGSLRLSCAASGFTFSNYAMTWVRQAPGKGLEWVSVISSVGSNTYYADSVKGRFTISRDNSKNTLYLQMNSLRAEDTAVYYCARPTKAGRTWWWGPYMDVWGQGTLVTVSS
VL: DIELTQPPSVSVAPGQTARISCSGDNIGSYYAYWYQQKPGQAPVLVIYDDSNRPSGIPERFSGSNSGNTATLTISGTQAEDEADYYCQSYDSTGLLVFGGGTKLTVLG
B4: TP-3F2 Fab (Fab, V domains shown)
VH: QVQLVESGGGLVQPGGSLRLSCAASGFTFSSYSMHWVRQAPGKGLEWVSGISYSSSFTYYADSVKGRFTISRDNSKNTLYLQMNSLRAEDTAVYYCARALGGGVDYWGQGTLVTVSS
VL: DIELTQPPSVSVAPGQTARISCSGDNLPSKSVYWYQQKPGQAPVLVIYGDNNRPSGIPERFSGSNSGNTATLTISGTQAEDEADYYCQSWTSRPMVVFGGGTKLTVLG
B5: TP-3G1 Fab (Fab, V domains shown)
VH: QVQLQQSGPGLVKPSQTLSLTCAISGDSVSSNSGGWGWIRQSPGRGLEWLGLIYYRSKWYNAYAVSVKSRITINPDTSKNQFSLQLNSVTPEDTAVYYCARYLGSNFYVYSDVWGQGTLVTVSS
VL: DIQMTQSPSSLSASVGDRVTITCRASQGISSYLHWYQQKPGKAPKLLIYGASTLQSGVPSRFSGSGSGTDFTLTISSLQPEDFATYYCQQQNGYPFTFGQGTKVEIKR
B6: TP-2G6 Fab (Fab, V domains shown)
VH: QVQLQQSGPGLVKPSQTLSLTCAISGDSVSSSSAAWSWIRQSPGRGLEWLGIIYYRSKWYNDYAVSVKSRITINPDTSKNQFSLQLNSVTPEDTAVYYCARHSMVGFDVWGQGTLVTVSS
VL: DIVLTQSPATLSLSPGERATLSCRASQYVTSSYLAWYQQKPGQAPRLLIYGSSRATGVPARFSGSGSGTDFTLTISSLEPEDFATYYCQQYSSSPITFGQGTKVEIKR
B7: TP-3B4 Fab (Fab, V domains shown)
VH: QVQLQQSGPGLVKPSQTLSLTCAISGDSVSSNGAAWGWIRQSPGRGLEWLGHIYYRSKWYNSYAVSVKSRITINPDTSKNQFSLQLNSVTPEDTAVYYCARWGGIHDGDIYFDYWGQGTLVTVSS
VL: DIQMTQSPSSLSASVGDRVTITCRASQNISNYLNWYQQKPGKAPKLLIYGTSSLQSGVPSRFSGSGSGTDFTLTISSLQPEDFAVYYCQQYGNNPTTFGQGTKVEIKR
B8: TP-2G7 Fab (Fab, V domains shown)
VH: QVQLVESGGGLVQPGGSLRLSCAASGFTFNSYAMSWVRQAPGKGLEWVSNISSNSSNTYYADSVKGRFTISRDNSKNTLYLQMNSLRAEDTAVYYCARKGGGEHGFFPSDIWGQGTLVTVSS
VL: DIELTQPPSVSVAPGQTARISCSGDNLGTYYVHWYQQKPGQAPVLVIYGDNNRPSGIPERFSGSNSGNTATLTISGTQAEDEADYYCQTYDSNNESIVFGGGTKLTVLG
B9: TP-2G9 Fab (Fab, V domains shown)
VH: QVQLVESGGGLVQPGGSLRLSCAASGFTFNSYAMTWVRQAPGKGLEWVSAIKSDGSNTYYADSVKGRFTISRDNSKNTLYLQMNSLRAEDTAVYYCARNDSGWFDVWGQGTLVTVSS
VL: DIALTQPASVSGSPGQSITISCTGTSSDLGGFNTVSWYQQHPGKAPKLMIYSVSSRPSGVSNRFSGSKSGNTASLTISGLQAEDEADYYCQSYDLNNLVFGGGTKLTVLG
B10: TP-3C1 Fab (Fab, V domains shown)
VH: B4 VH
VL: B9 VL
B11: TP-3A4 Fab (Fab, V domains shown)
VH: QVQLVESGGGLVQPGGSLRLSCAASGFTFSSYWMHWVRQAPGKGLEWVSSISYDSSNTYYADSVKGRFTISRDNSKNTLYLQMNSLRAEDTAVYYCARYGGMDYWGQGTLVTVSS
VL: DIELTQPPSVSVAPGQTARISCSGDNLRDKYASWYQQKPGQAPVLVIYSKSERPSGIPERFSGSNSGNTATLTISGTQAEDEADYYCSSYTLNPNLNYVFGGGTKLTVLG
B12: TP-3A2 Fab (Fab, V domains shown)
VH: QVQLVESGGGLVQPGGSLRLSCAASGFTFSNYYLSWVRQAPGKGLEWVSGISYNGSSTNYADSVKGRFTISRDNSKNTLYLQMNSLRAEDTAVYYCARMWRYSLGADSWGQGTLVTVSS
VL: DIELTQPPSVSVAPGQTARISCSGDNIGSRYAYWYQQKPGQAPVVVIYDDSDRPSGIPERFSGSNSGNTATLTISGTQAEDEADYYCAAYTFYARTVFGGGTKLTVLG
B13: TP-2E5 Fab (Fab, V domains shown)
VH: QVQLQQSGPGLVKPSQTLSLTCAISGDSVSSNSAAWSWIRQSPGRGLEWLGMIFYRSKWNNDYAVSVKSRITINPDTSKNQFSLQLNSVTPEDTAVYYCARVNANGYYAYVDLWGQGTLVTVSS
VL: DIQMTQSPSSLSASVGDRVTITCRASQPIYNSLSWYQQKPGKAPKLLIYGVSNLQSGVPSRFSGSGSGTDFTLTISSLQPEDFAVYYCLQVDNLPITFGQGTKVEIKR
B14: TP-2G4 Fab (Fab, V domains shown)
VH: QVQLVESGGGLVQPGGSLRLSCAASGFTFSSYAMTWVRQAPGKGLEWVSNISYSGSNTYYADSVKGRFTISRDNSKNTLYLQMNSLRAEDTAVYYCARVGYYYGFDYWGQGTLVTVSS
VL: DIELTQPPSVSVAPGQTARISCSGDALRKHYVYWYQQKPGQAPVLVIYGDNNRPSGIPERFSGSNSGNTATLTISGTQAEDEADYYCQSYDKPYPILVFGGGTKLTVLG
B15: TP-3B3 Fab (Fab, V domains shown)
VH: B14 VH with A33G, T35H, S54M, Y59N, V99G, G100L, Y101F, Y102P, Y103G, G104Y
VL: DIELTQPASVSVAPGQTARISCSGDNLRSKYAHWYQQKPGQAPVLVIYGDNNRPSGIPERFSGSNSGNTATLTISGTQAEDEADYYCSAYAMGSSPVFGGGTKLTVLG
B16: TP-2C7 Fab (Fab, V domains shown)
VH: QVQLQQSGPGLVKPSQTLSLTCAISGDSVSSNSAAWGWIRQSPGRGLEWLGIIYYRSKWYNHYAVSVKSRITINPDTSKNQFSLQLNSVTPEDTAVYYCARSNWSGYFDYWGQGTLVTVSS
VL: DIQMTQSPSSLSASVGDRVTITCRASQDIRNNLAWYQQKPGKAPKLLIYAASSLQSGVPSRFSGSGSGTDFTLTISSLQPEDFAVYYCQQRNGFPLTFGQGTKVEIKR
B17: TP-3G3 Fab (Fab, V domains shown)
VH: QVQLVESGGGLVQPGGSLRLSCAASGFTFSSYSMSWVRQAPGKGLEWVSSISSSSSNTYYGDSVKGRFTISRDNSKNTLYLQMNSLRAEDTAVYYCARMHYKGMDIWGQGTLVTVSS
VL: B7 VL with S30H, N31S, Y32H, G50D, T51A, G92Y, N93D, N94Y, T96L
B18: TP-2E3 Fab (Fab, V domains shown)
VH: B16 VH with I52M, H62D, S102V, W104Q, S105Y, G106T, Y107S, F108S
VL: DIALTQPASVSGSPGQSITISCTGTSSDIGGYNYVSWYQQHPGKAPKLMIYGVNYRPSGVSNRFSGSKSGNTASLTISGLQAEDEADYYCSSADKFTMSIVFGGGTKLTVLG
B19: TP-3C2 Fab (Fab, V domains shown)
VH: B6 VH with I52M, D62H, H102G, S103G, M104S, V105G, G106V, F107M
VL: B7 VL with N28S, S30T, G50D, T51V, S53N, G92S, N93G, N94Y, T96L
B20: TP-3F1 Fab (Fab, V domains shown)
VH: QVQLVQSGAEVKKPGESLKISCKGSGYSFTDYWIGWVRQMPGKGLEWMGIIQPSDSDTNYSPSFQGQVTISADKSISTAYLQWSSLKASDTAMYYCARFMWWGKYDSGFDVWGQGTLVTVSS
VL: DIELTQPPSVSVAPGQTARISCSGDNIGSYFASWYQQKPGQAPVLVIYDDSNRPSGIPERFSGSNSGNTATLTISGTQAEDEADYYCEGSNVFGGGTKLTVLG
B21: TP-2G2 Fab (Fab, V domains shown)
VH: QVQLVESGGGLVQPGGSLRLSCAASGFTFSSYAMNWVRQAPGKGLEWVSAILSDGSSTSYADSVKGRFTISRDNSKNTLYLQMNSLRAEDTAVYYCARYPDWGWYTDVWGQGTLVTVSS
VL: DIELTQPPSVSVAPGQTARISCSGDNIRKFYVHWYQQKPGQAPVLVIYGTNKRPSGIPERFSGSNSGNTATLTISGTQAEDEADYYCQSYDSKFNTVFGGGTKLTVLG
B22: TP-3C3 Fab (Fab, V domains shown)
VH: QVQLQQSGPGLVKPSQTLSLTCAISGDSVSSNSAAWGWIRQSPGRGLEWLGVIYYRSKWYNDYAVSVKSRITINPDTSKNQFSLQLNSVTPEDTAVYYCARARAKKSGGFDYWGQGTLVTVSS
VL: DIQMTQSPSSLSASVGDRVTITCRASQSINPYLNWYQQKPGKAPKLLIYAASNLQSGVPSRFSGSGSGTDFTLTISSLQPEDFAVYYCQQLDNRSITFGQGTKVEIKR

Changes are numbered by the printed parent chain. No constants are given. Whether binding was seen depends on the method and setting.

This assay concerns the target lysozyme. Briefly: ELISA.
For B1, the binding result is “no binding”.
As for B2, the binding result is “no binding”.
As for B3, the binding entry is reported as “no binding”.
As for B4, the entry is “no binding”; as for B5, “no binding”.
In the case of B6, the binding result was “no binding”.
Under B7 stands “no binding”; under B8, “no binding”; under B9, “no binding”.
Take B10: the binding result is listed as “no binding”.
Consider B11, for which the binding result was “no binding”.
Take B12: the binding result was “no binding”.
As for B13, the entry is “no binding”.
As for B14, the entry is “no binding”; as for B15, “no binding”; as for B16, “no binding”.
As for B17, the entry is “no binding”; as for B18, “no binding”; as for B19, “no binding”.
Regarding B20, the binding entry was “no binding”.
With B21, the binding entry is listed as “no binding”.
For B22, the binding result is recorded as “no binding”.

Source of the values: patent US20120269817A1.
